# Experimental data as given in the supplement of paper PMC10849652.
# The chains behind the UniProt entries cited, without tags or fusion partners. Where a name states a change or a piece, a line headed by the entry shows the natural chain unless it says otherwise.
# UniProt P47985: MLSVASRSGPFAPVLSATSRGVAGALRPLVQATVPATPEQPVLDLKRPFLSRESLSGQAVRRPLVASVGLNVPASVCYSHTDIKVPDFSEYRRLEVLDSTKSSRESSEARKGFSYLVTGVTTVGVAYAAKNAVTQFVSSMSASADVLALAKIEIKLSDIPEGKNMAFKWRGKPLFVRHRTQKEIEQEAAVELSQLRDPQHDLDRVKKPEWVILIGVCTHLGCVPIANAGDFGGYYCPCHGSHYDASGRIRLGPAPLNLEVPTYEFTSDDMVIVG
# UniProt Q70CQ2: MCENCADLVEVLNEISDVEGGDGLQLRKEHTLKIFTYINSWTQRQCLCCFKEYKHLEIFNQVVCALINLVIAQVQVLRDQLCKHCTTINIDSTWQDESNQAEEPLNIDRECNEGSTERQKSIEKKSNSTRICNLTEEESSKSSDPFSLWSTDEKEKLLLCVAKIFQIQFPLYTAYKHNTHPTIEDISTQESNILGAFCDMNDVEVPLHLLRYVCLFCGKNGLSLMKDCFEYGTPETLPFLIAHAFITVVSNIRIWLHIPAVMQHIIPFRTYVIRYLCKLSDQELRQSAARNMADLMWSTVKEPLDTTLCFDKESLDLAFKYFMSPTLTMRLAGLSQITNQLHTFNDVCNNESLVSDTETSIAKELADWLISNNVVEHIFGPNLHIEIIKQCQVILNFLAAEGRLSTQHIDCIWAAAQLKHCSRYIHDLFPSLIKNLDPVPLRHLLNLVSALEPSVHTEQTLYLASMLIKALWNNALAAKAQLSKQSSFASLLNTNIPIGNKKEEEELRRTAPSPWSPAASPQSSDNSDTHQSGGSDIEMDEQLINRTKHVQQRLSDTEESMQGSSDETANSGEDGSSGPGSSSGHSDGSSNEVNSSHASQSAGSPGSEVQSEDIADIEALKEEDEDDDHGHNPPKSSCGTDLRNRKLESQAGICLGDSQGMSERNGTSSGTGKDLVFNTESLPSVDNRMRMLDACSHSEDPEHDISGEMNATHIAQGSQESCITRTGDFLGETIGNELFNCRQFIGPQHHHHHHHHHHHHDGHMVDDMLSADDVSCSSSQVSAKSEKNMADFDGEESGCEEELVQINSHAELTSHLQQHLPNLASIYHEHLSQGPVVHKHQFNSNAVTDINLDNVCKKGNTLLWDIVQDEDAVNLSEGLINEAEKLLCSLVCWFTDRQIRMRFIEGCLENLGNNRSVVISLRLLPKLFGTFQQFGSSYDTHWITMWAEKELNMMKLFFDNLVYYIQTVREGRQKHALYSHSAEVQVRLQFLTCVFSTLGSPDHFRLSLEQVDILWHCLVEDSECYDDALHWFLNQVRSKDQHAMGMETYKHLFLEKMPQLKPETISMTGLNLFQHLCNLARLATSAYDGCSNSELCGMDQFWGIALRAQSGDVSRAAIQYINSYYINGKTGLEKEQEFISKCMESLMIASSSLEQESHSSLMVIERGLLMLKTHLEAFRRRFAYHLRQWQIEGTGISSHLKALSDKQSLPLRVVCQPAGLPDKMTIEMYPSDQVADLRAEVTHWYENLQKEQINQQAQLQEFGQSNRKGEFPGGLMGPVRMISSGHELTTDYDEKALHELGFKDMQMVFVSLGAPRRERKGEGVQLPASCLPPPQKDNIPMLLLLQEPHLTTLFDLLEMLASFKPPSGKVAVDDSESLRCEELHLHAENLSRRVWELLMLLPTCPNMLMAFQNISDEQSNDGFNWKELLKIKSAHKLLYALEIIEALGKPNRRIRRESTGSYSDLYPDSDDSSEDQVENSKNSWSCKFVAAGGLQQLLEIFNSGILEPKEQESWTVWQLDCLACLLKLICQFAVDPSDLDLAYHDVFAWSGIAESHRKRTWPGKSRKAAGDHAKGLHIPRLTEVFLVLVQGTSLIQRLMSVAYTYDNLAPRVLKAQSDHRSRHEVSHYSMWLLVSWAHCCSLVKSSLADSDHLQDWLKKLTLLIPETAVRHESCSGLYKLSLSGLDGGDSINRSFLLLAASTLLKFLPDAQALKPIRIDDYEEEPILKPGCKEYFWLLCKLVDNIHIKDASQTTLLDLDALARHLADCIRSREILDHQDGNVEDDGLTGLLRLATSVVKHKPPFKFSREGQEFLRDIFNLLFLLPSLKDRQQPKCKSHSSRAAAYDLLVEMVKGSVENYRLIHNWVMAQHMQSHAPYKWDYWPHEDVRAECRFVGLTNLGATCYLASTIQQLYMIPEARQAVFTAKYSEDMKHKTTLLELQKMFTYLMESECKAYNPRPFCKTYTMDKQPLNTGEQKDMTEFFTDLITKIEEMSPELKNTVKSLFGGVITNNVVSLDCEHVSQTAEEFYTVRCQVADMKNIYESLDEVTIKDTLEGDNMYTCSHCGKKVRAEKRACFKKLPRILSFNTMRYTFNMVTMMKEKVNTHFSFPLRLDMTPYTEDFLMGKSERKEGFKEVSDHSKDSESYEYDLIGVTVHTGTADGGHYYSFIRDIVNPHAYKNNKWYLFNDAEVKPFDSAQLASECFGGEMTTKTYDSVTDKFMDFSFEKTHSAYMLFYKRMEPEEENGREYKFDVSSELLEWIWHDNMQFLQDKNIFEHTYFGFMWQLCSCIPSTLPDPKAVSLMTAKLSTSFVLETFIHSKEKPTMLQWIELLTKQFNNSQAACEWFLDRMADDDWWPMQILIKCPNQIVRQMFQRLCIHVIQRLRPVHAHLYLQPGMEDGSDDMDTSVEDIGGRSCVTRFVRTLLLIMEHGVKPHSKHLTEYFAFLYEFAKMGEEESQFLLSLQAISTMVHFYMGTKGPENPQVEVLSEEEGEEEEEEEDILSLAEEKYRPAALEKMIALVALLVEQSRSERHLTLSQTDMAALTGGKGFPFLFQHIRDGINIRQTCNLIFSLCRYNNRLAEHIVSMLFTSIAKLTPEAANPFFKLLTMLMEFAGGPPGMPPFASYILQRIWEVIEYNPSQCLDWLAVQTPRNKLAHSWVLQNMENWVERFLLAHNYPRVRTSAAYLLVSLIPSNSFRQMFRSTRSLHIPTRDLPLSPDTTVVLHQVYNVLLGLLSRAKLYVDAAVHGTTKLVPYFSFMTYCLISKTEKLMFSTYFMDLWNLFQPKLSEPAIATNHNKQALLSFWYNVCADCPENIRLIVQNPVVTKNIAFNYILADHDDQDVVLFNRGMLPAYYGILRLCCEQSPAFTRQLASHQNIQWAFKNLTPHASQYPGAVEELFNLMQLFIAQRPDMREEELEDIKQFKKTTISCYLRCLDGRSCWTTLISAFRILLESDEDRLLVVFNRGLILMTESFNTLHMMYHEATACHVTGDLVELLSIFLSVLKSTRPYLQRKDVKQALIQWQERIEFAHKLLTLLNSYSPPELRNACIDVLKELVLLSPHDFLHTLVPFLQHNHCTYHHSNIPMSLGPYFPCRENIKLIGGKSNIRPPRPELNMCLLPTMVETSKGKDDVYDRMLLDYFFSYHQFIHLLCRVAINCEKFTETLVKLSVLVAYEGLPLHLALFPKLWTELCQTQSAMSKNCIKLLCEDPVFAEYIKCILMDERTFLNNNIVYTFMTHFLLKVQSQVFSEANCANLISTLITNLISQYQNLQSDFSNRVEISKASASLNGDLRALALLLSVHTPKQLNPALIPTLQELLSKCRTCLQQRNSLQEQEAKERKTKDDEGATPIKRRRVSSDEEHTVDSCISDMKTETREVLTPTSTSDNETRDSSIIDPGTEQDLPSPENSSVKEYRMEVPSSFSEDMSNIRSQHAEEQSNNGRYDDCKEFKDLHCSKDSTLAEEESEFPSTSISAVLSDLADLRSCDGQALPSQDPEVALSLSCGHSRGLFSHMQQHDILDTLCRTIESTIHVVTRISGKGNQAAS
# UniProt P51809, whole entry, looked up: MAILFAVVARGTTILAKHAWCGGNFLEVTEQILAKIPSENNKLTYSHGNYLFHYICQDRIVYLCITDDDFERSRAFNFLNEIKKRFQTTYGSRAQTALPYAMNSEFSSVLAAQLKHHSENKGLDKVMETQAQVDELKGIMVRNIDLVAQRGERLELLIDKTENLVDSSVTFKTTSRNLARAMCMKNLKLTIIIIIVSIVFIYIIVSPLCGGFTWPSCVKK
# UniProt Q9NYU2: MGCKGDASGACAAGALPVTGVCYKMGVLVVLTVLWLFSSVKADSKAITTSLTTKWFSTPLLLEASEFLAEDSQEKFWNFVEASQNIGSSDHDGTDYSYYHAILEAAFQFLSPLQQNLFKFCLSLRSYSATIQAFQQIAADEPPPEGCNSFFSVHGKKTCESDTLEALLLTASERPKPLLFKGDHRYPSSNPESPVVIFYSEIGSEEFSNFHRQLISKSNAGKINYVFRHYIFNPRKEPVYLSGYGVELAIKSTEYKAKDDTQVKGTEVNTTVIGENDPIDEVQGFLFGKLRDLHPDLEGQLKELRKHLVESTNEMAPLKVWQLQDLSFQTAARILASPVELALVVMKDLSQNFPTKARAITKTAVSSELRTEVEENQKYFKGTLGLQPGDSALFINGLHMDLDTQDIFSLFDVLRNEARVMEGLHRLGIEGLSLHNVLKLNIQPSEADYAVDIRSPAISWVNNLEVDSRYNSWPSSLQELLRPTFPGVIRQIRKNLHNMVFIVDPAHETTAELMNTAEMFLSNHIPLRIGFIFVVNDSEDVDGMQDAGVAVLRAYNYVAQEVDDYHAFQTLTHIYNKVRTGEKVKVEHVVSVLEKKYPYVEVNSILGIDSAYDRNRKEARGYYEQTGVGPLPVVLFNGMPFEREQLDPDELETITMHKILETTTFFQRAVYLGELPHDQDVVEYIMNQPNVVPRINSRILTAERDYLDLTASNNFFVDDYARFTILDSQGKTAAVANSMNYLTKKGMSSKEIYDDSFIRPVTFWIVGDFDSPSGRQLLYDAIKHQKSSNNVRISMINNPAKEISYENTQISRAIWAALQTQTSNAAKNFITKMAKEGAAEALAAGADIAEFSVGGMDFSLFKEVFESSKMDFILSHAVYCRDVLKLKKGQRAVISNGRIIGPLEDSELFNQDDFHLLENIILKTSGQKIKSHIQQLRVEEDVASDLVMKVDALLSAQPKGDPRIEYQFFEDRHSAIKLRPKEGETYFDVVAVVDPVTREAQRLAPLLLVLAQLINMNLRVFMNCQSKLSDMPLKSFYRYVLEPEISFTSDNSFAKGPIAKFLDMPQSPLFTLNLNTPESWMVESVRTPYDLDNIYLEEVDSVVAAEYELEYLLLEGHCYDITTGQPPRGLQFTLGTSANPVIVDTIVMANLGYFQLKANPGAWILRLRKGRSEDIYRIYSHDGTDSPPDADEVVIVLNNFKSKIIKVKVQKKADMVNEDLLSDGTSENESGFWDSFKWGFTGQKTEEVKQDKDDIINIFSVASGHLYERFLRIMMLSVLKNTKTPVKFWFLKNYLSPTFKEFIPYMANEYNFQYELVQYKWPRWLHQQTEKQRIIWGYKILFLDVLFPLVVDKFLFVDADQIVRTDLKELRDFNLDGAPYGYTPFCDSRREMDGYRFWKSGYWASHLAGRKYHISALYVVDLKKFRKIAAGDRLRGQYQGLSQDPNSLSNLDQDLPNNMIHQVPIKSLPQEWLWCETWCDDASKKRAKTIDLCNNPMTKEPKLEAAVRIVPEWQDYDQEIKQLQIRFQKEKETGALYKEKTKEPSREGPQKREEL
# UniProt Q92995: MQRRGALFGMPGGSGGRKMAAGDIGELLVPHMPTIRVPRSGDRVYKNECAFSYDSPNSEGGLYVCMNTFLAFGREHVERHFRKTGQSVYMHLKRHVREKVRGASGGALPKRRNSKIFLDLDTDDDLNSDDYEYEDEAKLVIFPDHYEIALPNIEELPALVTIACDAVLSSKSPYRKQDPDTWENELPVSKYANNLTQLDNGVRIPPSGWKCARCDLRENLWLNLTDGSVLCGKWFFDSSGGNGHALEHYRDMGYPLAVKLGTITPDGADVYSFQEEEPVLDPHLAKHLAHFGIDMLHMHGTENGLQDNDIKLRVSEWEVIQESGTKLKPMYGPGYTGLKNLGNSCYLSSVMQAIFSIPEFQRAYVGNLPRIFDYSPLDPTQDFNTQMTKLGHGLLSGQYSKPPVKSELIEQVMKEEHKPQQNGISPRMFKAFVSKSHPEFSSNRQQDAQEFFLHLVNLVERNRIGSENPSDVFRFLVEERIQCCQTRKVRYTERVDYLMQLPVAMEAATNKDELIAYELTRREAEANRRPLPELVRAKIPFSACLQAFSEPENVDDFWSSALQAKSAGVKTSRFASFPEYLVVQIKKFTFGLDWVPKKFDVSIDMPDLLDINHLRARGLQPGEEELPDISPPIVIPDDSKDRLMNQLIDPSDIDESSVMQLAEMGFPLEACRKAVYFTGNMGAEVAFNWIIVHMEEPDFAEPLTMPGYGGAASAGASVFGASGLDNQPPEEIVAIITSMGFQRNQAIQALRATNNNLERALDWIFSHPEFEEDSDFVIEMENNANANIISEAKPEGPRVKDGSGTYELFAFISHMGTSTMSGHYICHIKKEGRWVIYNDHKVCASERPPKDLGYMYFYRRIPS
# UniProt Q9BZL1: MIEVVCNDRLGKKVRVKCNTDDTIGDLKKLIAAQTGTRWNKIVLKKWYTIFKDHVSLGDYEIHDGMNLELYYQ
# This is one part of the list.
# Compound: c1ccc([C@@H]2C[C@H]2NC2CCNCC2)cc1
# Assay: log2 fold change, soluble protein after heating vs DMSO (PISA); higher = thermal stabilisation; K562 cells, 10 uM, 30 min; active = over 0.2 and 3.5 SD of the protein, either way, in both replicates (recomputed)
# Method in brief: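 Soluble protein was defined as the supernatant after 21,000xg for 90 min. It came from K562 cells at 2×10^6 cells/mL given 10 μM compound for 30 min, heated in aliquots for 3 min across 48°C-58°C, pooled, and extracted in PBS with 0.5% NP-40 at 4°C, and was quantified by TMTpro 16plex LC-MS/MS with equalised channel sums. Thermal stability against control samples, from duplicates, is reported as log2 fold change.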
row,Target,log2 fold change
1,UBIAD1 (UniProt Q9Y5Z9),inactive: 0.093
2,USP1 (UniProt O94782),inactive: -0.008
3,UVRAG (UniProt Q9P2Y5),inactive: -0.034
4,UQCRFS1 (UniProt P47985),inactive: -0.047
5,UBQLN4 (UniProt Q9NRR5),inactive: 0.008
6,USP10 isoform 2 (UniProt Q14694),inactive: -0.004
7,UQCRC1 (UniProt P31930),inactive: 0.029
8,UQCRC2 (UniProt P22695),inactive: -0.01
9,UBE4B isoform 4 (UniProt O95155),inactive: -0.003
10,UTP4 (UniProt Q969X6),inactive: -0.021
11,USP34 (UniProt Q70CQ2),inactive: 0.034
12,UQCRH (UniProt P07919),inactive: 0.049
13,UBQLN1 (UniProt Q9UMX0),inactive: 0.021
14,VAMP7 (UniProt P51809),inactive: 0.015
15,UEVLD (UniProt Q8IX04),inactive: 0.081
16,UGGT1 (UniProt Q9NYU2),inactive: -0.021
17,USP13 (UniProt Q92995),inactive: -0.048
18,USP5 (UniProt P45974),inactive: -0.047
19,UBQLN2 (UniProt Q9UHD9),inactive: 0.003
20,UGP2 (UniProt Q16851),inactive: -0.005
21,UBXN4 (UniProt Q92575),inactive: 0.019
22,UBL5 (UniProt Q9BZL1),inactive: 0.03
23,URI1 isoform 4 (UniProt O94763),inactive: 0.112

# Single values from the list.
# UTP4 (UniProt Q969X6) | log2 fold change: inactive: -0.021
# UBQLN4 (UniProt Q9NRR5) | log2 fold change: inactive: 0.008
